This is an account of results in publication PMC11213465.

No constants are given. Whether binding was seen depends on the method and setting. In cells and extracts the contact can be indirect. Some entries that bind do so weakly or less than the wild type. For some assays here: Tags and fused reporters may be left off the sequences shown.

Experiment [1] addresses T1, developmentally regulated GTP-binding protein 1 (DRG1), HA-DRG1 expressed in 293T cells (UniProt P32233).
T1 sequence: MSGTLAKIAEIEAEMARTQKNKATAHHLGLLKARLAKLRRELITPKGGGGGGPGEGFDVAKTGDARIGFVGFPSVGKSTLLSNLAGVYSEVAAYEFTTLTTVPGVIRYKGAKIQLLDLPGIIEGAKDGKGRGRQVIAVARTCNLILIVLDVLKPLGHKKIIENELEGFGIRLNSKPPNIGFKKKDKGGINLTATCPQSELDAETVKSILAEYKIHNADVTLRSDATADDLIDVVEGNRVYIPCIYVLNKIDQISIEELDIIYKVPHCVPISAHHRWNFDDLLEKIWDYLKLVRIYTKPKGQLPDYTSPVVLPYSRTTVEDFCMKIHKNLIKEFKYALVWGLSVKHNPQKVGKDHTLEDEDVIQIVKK
Put plainly: co-IP; exogenous co-IP in transfected 293T cells; also with or without cotransfected Cardinal or Cardinal-as, plasmid amounts titrated for comparable inputs.

In experiment [2] the target is T2, developmentally regulated GTP-binding protein 1 (DRG1), endogenous in HL-1 cells (mouse (endogenous in HL-1)) (UniProt P32233).
T2 sequence: T1 sequence
Put plainly: co-IP; endogenous co-IP in HL-1 cells with anti-DRG1, IgG as control; also in sh-NC and sh-Cardinal HL-1 cells.

B1: DRG family regulatory protein 1 (DFRP1), expressed in 293T cells (protein, UniProt Q3TIV5 1-426)
chain: MPPKKQAQAGGSKKAEQKKKEKIIEDKTFGLKNKKGAKQQKFIKAVTHQVKFGQQNPRQVAQSEAEKKLKKDDKKKELQELNELFKPVVAAQKISKGADPKSVVCAFFKQGQCTKGDKCKFSHDLTLERKCEKRSVYIDARDEELEKDTMDNWDEKKLEEVVNKKHGEAEKKKPKTQIVCRHFLEAIENNKYGWFWVCPGGGDNCMYRHALPPGFVLKKDKKKEEKEDEISLEDLIERERSALGPNVTKITLESFLAWKKRKRQEKIDKLEQDMERRKADFKAGKALVISGREVFEFRPELVNDDDEEADDTRYIQGTGGDEVDDSMGVNDIDISLYVPRDVEETGITVASVERFSTYAPDKDENKLSEASGGLAENGERSDLDEDSGGGGQENGSIDAVPVDENLFTGEDLDELEEELNTLDLEE
Regarding B1, in experiment [1], the binding entry is given as “binds”.

B2: DRG family regulatory protein 1 (DFRP1), endogenous in HL-1 cells (protein, UniProt Q3TIV5 1-426)
chain: B1 chain
In the case of B2, the binding entry in experiment [2] is “binds”.
